Laboratory results from PubChem BioAssay AID282 (DTP/NCI, 2004).
The list does not hold the whole screen: it gathers some chemical classes. Not every dose and run of a compound is shown. T/C gives the treated animals as a percentage of the vehicle group. Where survival is the endpoint, the PubChem record calls one and a half times the control and up active, and a quarter to a half above the control has no call in these data; cut-offs in other NCI protocols can differ. Some T/C values are marked as having no survivor count here; that says nothing about deaths at the dose. Schedule codes are those of the source, taken here to give the interval after Q, in days (D) or hours (H), and the number of doses after X. Some entries hold several experiments; the values are given in rising order. Some schedules carry Z or #; the key to these is not given.

Tested on: BDF1 mice, L1210 terephthalanilide-resistant leukemia ip, survival T/C
Assay: NCI In Vivo Anticancer Drug Screen. Data for tumor model L1210 Leukemia resistant to A Terephthalanilide; NSC 38280 (intraperitoneal) in B6D2F1 (BDF1) mice
Details: T/C endpoint: mean survival time, vehicle: saline, higher T/C = longer survival
Procedure: The antitumor activity of compounds was measured in mice bearing transplantable tumors. Survival or tumor size were measured and the results are expressed as the measurement made in the treated group (T) divided by the measurement made in the vehicle treated control group (C). The tumor model used in this assay is L1210 Leukemia resistant to A Terephthalanilide; NSC 38280 (intraperitoneal) in B6D2F1 (BDF1) mice

## CC(C(=O)O)N(CCCl)CCCl (configuration not stated)
dose: 0.25 mg/kg/injection, schedule: Q01DX Z (ip)
  T/C: 120 % of control [survivor count not shown]
dose: 0.37 mg/kg/injection, schedule: Q01DX Z (ip)
  T/C: 121 % of control [survivor count not shown]
dose: 0.5 mg/kg/injection, schedule: Q01DX010 (ip)
  T/C: 119 [survivor count not shown] and 129 % of control [survivor count not shown]
dose: 0.5 mg/kg/injection, schedule: Q01DX Z (ip)
  T/C: 131 % of control [survivor count not shown]
dose: 0.75 mg/kg/injection, schedule: Q01DX Z (ip)
  T/C: 147 % of control [survivor count not shown]
dose: 1.0 mg/kg/injection, schedule: Q01DX010 (ip)
  T/C: 131 [survivor count not shown] and 133 % of control [survivor count not shown]
dose: 1.0 mg/kg/injection, schedule: Q01DX Z (ip)
  T/C: 143 % of control [survivor count not shown]
dose: 2.0 mg/kg/injection, schedule: Q01DX010 (ip)
  T/C: 146 [survivor count not shown] and 148 % of control [survivor count not shown]
dose: 2.0 mg/kg/injection, schedule: Q01DX Z (ip)
  T/C: 160 % of control [survivor count not shown]
dose: 3.5 mg/kg/injection, schedule: Q01DX Z (ip)
  T/C: 231 % of control [survivor count not shown]
dose: 5.0 mg/kg/injection, schedule: Q01DX Z (ip)
  T/C: 152 [survivor count not shown] and 160 % of control [survivor count not shown]
dose: 7.5 mg/kg/injection, schedule: Q01DX Z (ip)
  T/C: 96 % of control [survivor count not shown]
